Experimental data from the supplement of paper PMC11006884.
This list holds what a sample rich in targets with a hit left over. Single values of this set are uncertain. This is a selection; strong and weak results do not stand in their true shares.

Chains of the proteins cited; added tags and fusions are not shown. Lines headed by an entry give the natural chain unless they say otherwise; changes in a name come on top.
UniProt Q8WVM8, whole entry, looked up: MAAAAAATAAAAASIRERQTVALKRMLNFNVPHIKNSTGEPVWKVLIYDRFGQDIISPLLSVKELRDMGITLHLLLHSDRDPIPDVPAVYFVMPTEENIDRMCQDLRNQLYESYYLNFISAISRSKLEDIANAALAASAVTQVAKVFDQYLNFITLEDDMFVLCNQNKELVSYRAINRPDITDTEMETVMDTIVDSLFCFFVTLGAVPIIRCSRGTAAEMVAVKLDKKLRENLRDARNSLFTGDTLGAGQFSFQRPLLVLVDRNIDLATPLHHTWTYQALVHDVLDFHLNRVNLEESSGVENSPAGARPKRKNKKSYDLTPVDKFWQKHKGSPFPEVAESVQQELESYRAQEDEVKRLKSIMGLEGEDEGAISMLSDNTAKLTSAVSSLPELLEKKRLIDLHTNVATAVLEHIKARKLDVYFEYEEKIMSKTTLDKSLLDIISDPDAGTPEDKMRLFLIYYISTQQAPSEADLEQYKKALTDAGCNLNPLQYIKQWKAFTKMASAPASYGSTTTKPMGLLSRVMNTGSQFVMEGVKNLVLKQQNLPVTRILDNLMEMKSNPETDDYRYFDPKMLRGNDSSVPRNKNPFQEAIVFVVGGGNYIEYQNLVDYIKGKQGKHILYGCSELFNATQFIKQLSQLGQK
UniProt Q8ND56: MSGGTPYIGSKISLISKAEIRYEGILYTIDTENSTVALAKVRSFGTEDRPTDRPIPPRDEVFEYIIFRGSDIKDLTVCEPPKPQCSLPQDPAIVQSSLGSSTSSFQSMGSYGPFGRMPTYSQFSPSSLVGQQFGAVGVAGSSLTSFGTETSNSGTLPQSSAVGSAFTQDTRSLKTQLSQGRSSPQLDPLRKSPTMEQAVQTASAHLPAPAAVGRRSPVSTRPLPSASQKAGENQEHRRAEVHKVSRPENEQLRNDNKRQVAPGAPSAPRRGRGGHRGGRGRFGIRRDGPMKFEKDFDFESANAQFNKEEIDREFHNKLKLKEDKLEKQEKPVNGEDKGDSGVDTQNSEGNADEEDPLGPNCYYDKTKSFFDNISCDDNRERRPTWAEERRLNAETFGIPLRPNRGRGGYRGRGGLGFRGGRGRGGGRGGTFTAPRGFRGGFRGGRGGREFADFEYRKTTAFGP
UniProt Q8WTR2: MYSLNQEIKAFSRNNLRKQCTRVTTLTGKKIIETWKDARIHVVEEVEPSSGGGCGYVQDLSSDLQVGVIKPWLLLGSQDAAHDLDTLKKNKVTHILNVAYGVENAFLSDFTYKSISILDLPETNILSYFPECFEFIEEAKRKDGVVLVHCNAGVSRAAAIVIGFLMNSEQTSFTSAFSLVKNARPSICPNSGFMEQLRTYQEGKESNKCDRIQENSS
UniProt Q8WWZ3: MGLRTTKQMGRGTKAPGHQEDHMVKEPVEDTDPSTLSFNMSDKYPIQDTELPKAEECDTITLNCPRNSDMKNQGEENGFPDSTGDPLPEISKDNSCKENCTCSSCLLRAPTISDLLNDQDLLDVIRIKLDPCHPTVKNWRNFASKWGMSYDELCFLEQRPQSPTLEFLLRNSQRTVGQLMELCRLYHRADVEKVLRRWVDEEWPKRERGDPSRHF
UniProt Q8NE01: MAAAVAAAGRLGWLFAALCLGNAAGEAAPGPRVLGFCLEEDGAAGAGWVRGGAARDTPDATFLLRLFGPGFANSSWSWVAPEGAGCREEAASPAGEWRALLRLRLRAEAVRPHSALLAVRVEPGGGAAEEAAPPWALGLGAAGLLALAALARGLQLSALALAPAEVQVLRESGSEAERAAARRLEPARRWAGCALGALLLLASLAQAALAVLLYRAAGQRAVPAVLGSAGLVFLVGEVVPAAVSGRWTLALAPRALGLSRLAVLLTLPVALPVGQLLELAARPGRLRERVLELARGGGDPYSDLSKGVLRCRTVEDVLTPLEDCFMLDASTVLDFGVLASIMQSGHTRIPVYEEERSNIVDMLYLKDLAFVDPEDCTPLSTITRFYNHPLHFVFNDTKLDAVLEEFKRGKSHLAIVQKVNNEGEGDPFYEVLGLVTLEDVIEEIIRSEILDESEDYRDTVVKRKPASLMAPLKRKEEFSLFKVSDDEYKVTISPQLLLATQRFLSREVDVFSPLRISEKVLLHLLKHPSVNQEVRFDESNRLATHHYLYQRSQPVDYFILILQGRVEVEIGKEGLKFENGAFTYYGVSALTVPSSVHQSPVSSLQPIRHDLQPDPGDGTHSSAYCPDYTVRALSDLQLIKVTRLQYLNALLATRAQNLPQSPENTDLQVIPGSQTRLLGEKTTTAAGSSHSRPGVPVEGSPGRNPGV
UniProt Q8WUY8: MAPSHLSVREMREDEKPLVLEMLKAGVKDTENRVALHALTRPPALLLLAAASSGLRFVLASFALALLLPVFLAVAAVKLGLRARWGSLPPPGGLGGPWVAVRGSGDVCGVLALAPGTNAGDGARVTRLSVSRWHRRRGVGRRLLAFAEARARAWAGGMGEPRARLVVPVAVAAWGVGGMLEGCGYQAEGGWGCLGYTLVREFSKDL
UniProt Q8WVV9: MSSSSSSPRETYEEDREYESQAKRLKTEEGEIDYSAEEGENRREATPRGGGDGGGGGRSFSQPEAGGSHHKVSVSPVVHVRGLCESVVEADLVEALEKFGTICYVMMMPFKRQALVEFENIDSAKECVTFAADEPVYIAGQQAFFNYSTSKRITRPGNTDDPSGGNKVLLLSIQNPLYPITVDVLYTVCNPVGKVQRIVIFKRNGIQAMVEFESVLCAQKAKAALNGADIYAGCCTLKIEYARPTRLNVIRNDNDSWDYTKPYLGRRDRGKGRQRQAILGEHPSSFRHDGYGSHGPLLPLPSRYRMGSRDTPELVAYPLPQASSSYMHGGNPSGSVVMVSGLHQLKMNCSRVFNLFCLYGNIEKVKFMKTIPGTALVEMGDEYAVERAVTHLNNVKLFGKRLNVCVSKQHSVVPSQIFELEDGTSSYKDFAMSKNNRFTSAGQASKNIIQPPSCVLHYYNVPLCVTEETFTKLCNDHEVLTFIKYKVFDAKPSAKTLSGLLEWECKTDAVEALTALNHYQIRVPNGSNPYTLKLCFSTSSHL
UniProt Q8NB37: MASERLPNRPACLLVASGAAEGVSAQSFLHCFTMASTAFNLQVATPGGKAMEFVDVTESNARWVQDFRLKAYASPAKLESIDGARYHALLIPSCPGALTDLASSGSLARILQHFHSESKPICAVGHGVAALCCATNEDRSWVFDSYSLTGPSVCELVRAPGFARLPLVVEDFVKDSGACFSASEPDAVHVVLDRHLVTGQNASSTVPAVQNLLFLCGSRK
UniProt Q8N8A6: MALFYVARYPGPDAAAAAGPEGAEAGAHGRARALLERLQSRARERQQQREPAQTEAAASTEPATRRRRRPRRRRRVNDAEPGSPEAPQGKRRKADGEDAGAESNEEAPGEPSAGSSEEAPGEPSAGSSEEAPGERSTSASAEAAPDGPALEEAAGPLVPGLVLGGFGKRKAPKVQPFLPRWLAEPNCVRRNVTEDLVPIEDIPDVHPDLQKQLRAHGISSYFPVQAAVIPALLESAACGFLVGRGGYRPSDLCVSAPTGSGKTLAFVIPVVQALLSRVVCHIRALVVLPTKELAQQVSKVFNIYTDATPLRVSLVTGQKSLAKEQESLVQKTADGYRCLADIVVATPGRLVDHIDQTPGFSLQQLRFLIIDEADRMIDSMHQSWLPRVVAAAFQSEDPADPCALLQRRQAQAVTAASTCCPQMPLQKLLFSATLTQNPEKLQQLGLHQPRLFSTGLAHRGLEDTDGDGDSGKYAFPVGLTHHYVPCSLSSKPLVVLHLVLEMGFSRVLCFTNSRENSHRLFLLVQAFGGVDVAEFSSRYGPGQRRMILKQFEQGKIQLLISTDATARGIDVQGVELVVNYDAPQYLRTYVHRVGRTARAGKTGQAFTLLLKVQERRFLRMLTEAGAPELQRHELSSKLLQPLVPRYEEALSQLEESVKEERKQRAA
UniProt Q8NDT2: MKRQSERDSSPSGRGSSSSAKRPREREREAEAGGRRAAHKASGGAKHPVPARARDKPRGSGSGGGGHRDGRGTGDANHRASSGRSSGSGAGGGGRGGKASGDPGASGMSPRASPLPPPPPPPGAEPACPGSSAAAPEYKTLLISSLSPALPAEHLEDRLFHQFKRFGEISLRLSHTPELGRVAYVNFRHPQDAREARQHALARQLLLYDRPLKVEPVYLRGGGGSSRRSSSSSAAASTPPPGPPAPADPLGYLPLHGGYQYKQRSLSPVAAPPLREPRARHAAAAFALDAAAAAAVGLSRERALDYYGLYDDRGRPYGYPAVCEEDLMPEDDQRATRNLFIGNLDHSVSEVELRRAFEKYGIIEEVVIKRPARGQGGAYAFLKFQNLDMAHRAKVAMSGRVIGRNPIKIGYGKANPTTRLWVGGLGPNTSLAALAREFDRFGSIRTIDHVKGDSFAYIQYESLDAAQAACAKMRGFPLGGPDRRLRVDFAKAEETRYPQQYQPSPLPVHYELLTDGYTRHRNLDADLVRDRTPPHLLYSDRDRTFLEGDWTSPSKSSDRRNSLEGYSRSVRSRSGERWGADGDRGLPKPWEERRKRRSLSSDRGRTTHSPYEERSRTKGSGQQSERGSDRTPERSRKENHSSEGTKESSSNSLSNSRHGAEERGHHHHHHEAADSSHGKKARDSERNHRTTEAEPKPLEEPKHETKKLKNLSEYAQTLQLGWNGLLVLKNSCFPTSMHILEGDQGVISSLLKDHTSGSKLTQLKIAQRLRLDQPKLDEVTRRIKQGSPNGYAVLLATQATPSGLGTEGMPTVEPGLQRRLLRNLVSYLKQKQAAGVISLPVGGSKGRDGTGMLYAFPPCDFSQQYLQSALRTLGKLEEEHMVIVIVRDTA
UniProt Q8N2F6: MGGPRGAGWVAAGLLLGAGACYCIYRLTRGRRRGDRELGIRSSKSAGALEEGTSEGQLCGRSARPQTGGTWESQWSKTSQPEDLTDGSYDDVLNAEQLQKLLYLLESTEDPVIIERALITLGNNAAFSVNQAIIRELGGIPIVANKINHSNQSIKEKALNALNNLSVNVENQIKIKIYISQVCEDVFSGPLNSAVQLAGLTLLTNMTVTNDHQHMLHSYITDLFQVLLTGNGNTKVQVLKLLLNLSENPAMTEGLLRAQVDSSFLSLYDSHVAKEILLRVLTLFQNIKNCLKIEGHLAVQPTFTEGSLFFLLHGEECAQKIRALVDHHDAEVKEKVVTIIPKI
UniProt Q8WYH8, whole entry: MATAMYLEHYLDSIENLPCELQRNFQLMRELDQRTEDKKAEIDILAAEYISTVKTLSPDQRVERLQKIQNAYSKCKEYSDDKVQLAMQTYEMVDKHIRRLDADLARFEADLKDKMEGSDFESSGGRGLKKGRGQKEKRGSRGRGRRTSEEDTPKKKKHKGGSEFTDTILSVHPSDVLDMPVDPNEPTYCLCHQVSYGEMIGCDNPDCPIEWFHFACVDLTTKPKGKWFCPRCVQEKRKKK
UniProt Q8N3U4: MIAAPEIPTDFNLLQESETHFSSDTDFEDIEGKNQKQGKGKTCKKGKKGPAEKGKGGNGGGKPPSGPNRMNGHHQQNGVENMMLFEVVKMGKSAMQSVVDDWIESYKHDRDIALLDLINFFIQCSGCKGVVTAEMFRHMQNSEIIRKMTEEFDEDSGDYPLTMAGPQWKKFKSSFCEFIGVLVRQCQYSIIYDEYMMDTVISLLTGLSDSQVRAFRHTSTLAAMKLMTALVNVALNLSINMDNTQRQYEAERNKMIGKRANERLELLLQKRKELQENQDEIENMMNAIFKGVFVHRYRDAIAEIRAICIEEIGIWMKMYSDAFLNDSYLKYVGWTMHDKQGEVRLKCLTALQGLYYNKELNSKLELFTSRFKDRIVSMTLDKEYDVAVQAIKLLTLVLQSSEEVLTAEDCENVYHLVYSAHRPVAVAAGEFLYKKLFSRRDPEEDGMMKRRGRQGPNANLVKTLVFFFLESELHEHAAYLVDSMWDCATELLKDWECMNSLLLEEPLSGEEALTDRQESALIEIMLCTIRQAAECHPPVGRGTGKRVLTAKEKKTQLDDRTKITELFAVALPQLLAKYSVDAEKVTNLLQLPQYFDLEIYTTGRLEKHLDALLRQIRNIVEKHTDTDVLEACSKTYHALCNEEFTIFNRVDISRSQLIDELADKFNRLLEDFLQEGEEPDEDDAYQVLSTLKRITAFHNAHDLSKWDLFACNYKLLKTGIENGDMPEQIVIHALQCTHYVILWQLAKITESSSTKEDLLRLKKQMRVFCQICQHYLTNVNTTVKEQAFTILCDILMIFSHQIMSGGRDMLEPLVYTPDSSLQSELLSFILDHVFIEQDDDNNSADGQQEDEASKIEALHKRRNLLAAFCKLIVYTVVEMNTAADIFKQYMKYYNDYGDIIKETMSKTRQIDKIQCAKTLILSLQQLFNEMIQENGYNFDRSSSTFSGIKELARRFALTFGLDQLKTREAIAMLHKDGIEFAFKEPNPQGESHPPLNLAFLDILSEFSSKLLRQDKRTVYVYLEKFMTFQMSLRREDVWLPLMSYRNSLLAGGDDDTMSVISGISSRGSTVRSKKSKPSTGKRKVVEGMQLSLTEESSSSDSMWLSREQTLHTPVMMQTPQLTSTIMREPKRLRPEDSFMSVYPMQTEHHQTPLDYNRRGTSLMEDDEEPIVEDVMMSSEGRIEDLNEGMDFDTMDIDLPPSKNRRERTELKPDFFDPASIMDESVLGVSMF

compound: COC(=O)/C=C/c1ccccc1 [methyl cinnamate]; experiment: log2 ratio of iodoacetamide-alkyne labeling of the cysteine site, DMSO over compound (competition); higher = stronger covalent engagement of the cysteine by the compound, active = 1 or more; conditions: 500 µM; treatment time 1 h; system: HEK293T cell lysate
Procedure, shortened: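 Electrophile (500 µM) or vehicle was added to HEK293T lysate (2 mg/mL) for 1 h at ambient temperature before iodoacetamide alkyne labelling (1 h) and click coupling to sCIP-TMT reagents. After pooling, overnight trypsin digestion at 37 °C, streptavidin enrichment and acid elution, peptides were measured by Orbitrap Eclipse LC-MS/MS with FAIMS and quantified in FragPipe. Each cysteine's log2 competition ratio compares mean control-channel with mean compound-channel reporter intensity, control over compound. Data came from duplicate channels across three replicates, excluding cysteines quantified in only one replicate.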

Row | Target | log2 ratio of iodoacetamide-alkyne labeling
1 | SCFD1 C485 (UniProt Q8WVM8) | inactive: 0.165
2 | LSM14A C375 (UniProt Q8ND56) | inactive: 0.423
3 | CXorf38 C300 (UniProt Q8TB03) | inactive: -0.000308
4 | PREX1 C52 (UniProt Q8TCU6) | inactive: -0.127
5 | INTS1 C1534 (UniProt Q8N201) | inactive: 0.121
6 | DUSP19 C188 (UniProt Q8WTR2) | inactive: 0.42
7 | EDARADD C154 (UniProt Q8WWZ3) | inactive: -0.134
8 | UniProt Q8N8U9_C189 | inactive: 0.186
9 | CNNM3 C376 (UniProt Q8NE01) | inactive: 0.115
10 | UniProt Q8N6Q8_C5 | inactive: 0.32
11 | SPATA5 C27 (UniProt Q8NB90) | inactive: 0.382
12 | GPT2 C142 (UniProt Q8TD30) | inactive: 0.128
13 | NAT14 C108 (UniProt Q8WUY8) | inactive: 0.276
14 | UniProt Q8WVV9_C505 | inactive: 0.0672
15 | PIEZO1 C383 (UniProt Q92508) | inactive: 0.0926
16 | PDCD6IP C512 (UniProt Q8WUM4) | inactive: -0.0251
17 | UniProt Q8NB37_C94 | inactive: 0.119
18 | DDX51 C402 (UniProt Q8N8A6) | inactive: 0.172
19 | RBM15B C128 (UniProt Q8NDT2) | inactive: 0.256

Row | Target | log2 ratio of iodoacetamide-alkyne labeling
20 | RBM15B C859 (UniProt Q8NDT2) | inactive: -0.173
21 | ZADH2 C55 (UniProt Q8N4Q0) | inactive: -0.189
22 | UniProt Q8N6R0_C391 | inactive: -0.00813
23 | UniProt Q8WUQ7_C699 | inactive: 0.0827
24 | SMARCC2 C145 (UniProt Q8TAQ2) | inactive: 0.188
25 | ARMC10 C59 (UniProt Q8N2F6) | inactive: 0.152
26 | NCOA7 C439 (UniProt Q8NI08) | inactive: 0.231
27 | UniProt Q8NI60_C641 | inactive: 0.326
28 | UniProt Q8N163_C238 | inactive: 0.0185
29 | SLC30A7 C308 (UniProt Q8NEW0) | inactive: 0.171
30 | EXOC6 C135 (UniProt Q8TAG9) | inactive: 0.469
31 | NUP133 C700 (UniProt Q8WUM0) | inactive: -0.235
32 | ASCC3 C742 (UniProt Q8N3C0) | inactive: 0.35
33 | INTS1 C969 (UniProt Q8N201) | inactive: 0.357
34 | ING5 C19 (UniProt Q8WYH8) | inactive: 0.0175
35 | TRUB1 C249 (UniProt Q8WWH5) | inactive: -0.0821
36 | STAG2 C915 (UniProt Q8N3U4) | inactive: 0.223
37 | AHCTF1 C521 (UniProt Q8WYP5) | inactive: 0.152

Shown field by field: part of the list above
ZADH2 C55 (UniProt Q8N4Q0)
  log2 ratio of iodoacetamide-alkyne labeling: inactive: -0.189
NCOA7 C439 (UniProt Q8NI08)
  log2 ratio of iodoacetamide-alkyne labeling: inactive: 0.231
